Results taken from patent US20190106509A1 (PROTHIX B V, published 2019).
These are yes or no findings as the source states them, for the method shown. Some binding calls cover weakened binding; strength is not graded here.

The chains behind the UniProt entries cited, without tags or fusion partners. Residues count along the entry.
UniProt P03951, residues 19-625: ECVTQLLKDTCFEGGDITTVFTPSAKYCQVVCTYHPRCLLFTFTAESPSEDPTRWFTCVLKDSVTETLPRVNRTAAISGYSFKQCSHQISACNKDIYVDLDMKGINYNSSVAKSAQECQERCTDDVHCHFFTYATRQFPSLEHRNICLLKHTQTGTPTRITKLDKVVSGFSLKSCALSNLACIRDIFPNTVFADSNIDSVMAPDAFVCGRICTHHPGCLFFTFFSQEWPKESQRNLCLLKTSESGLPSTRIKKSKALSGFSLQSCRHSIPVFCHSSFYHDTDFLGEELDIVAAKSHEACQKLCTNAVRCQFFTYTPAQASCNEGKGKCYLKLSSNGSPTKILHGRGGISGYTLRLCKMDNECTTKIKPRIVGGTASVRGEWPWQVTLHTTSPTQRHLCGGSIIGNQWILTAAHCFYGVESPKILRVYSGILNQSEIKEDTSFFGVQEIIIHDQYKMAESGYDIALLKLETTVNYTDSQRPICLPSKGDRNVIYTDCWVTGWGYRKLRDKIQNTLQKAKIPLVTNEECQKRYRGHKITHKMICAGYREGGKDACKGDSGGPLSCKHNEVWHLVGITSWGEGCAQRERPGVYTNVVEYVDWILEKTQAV

Target: activated factor XI (FXIa) (UniProt P03951)
Assay: inferred from inhibition of FXIa chromogenic activity (S2366)

binding: binds
B1: mouse mAb anti-FXI 34.2 (antibody, V domains shown)
VH: QVQLQQPGSELVRPGASVKLSCKASGYTFTRYWMHWVKQRHGQGLEWIGNIYPDSDSTNYDEKFRTKATLTADTSSSTAYMHLSSLTSEDSAVYYCTRMGFYAMDYWGQGTSVTVSS
VL: NIVMTQSPKSMSMSVGERVTLSCKASENVVTYVSWFQHKPEQSPKLLIYGASNRYTGVPDRFTGSGSATDFTLTISSVQAEDLADYHCGQSYSYPLTFGAGTKLELKR
notes: Mouse IgG purified from hybridoma supernatant by protein G
